These results are taken from US7572938B2, “Precursors for ketones and aldehydes” (Givaudan SA, priority 2001, dated 2009).

The nature of this series: Photorelease assays on fabric: spray tests, evaluation by a trained panel of perfumers. Further details: key: 0: very weak; +: weak; ++: medium; +++: strong. The note with it: Terry towel sprayed with 0.2% solution in ethanol; for Fragrance Target (perception) Aldehyde/Ketone (III) nat. light / Fragrance Target (perception) Aryl ketone (II) nat. light / Global appreciation nat. light: natural winter sun light behind glass window; for Fragrance Target (perception) Aldehyde/Ketone (III) art. light / Fragrance Target (perception) Aryl ketone (II) art. light / Global appreciation art. light: tanning lamp 300 W, 50 cm.

Each structure is given as a SMILES string.

For the molecule `C=CCCCCCCCCCOC(OCCCCCCCCCC=C)C(=O)c1ccccc1` [compound 27], the “Fragrance Target (perception) Aldehyde/Ketone (III) nat. light” value is on record as “+”, the “Fragrance Target (perception) Aryl ketone (II) nat. light” value was “+”, the “Global appreciation nat. light” value is recorded as “+” and the “Fragrance Target (perception) Aldehyde/Ketone (III) art. light” value was “++”. In addition, the “Fragrance Target (perception) Aryl ketone (II) art. light” value is “++” and the “Global appreciation art. light” value is recorded as “++”.
As to `CC(COC(OCC(C)Cc1ccc(C(C)(C)C)cc1)C(=O)c1ccc(NC(=O)C(C)(C)C)cc1)Cc1ccc(C(C)(C)C)cc1` (stereo not shown) [compound 42], the “Fragrance Target (perception) Aldehyde/Ketone (III) art. light” value is reported as “+++” and the “Global appreciation art. light” value was “+++”.
For the molecule `CCCCCCCCCC(C)COC(OCC(C)CCCCCCCCC)C(=O)c1ccc(OC)c(OC)c1` (stereo not shown) [compound 38], the “Fragrance Target (perception) Aldehyde/Ketone (III) nat. light” value is “++”, the “Global appreciation nat. light” value is given as “++”, the “Fragrance Target (perception) Aldehyde/Ketone (III) art. light” value is on record as “+++” and the “Global appreciation art. light” value is on record as “+++”.
In the case of `COc1ccc(C(=O)C(OCCc2ccccc2)OCCc2ccccc2)cc1OC` [compound 39], the “Fragrance Target (perception) Aldehyde/Ketone (III) nat. light” value is “+”, the “Global appreciation nat. light” value is given as “+”, the “Fragrance Target (perception) Aldehyde/Ketone (III) art. light” value was “++” and the “Global appreciation art. light” value is listed as “++”.
For the molecule `CCCOc1ccc(C(=O)C(OC(C)CCC2=C(C)CCCC2(C)C)OC(C)CCC2=C(C)CCCC2(C)C)cc1` (stereo not shown) [compound 14, 2,2-Bis-[1-methyl-3-(2,6,6-trimethyl-cyclohex-1-enyl)-propoxy]-1-(4-propoxy-phenyl)-ethanone], the “Fragrance Target (perception) Aldehyde/Ketone (III) nat. light” value is 0, the “Global appreciation nat. light” value is 0, the “Fragrance Target (perception) Aldehyde/Ketone (III) art. light” value was “++” and the “Global appreciation art. light” value is “++”.
Take `CCCCCCCCCC(C)COC(OCC(C)CCCCCCCCC)C(=O)c1ccc(NC(=O)C(C)(C)C)cc1` (stereo not shown) [compound 43]: the “Fragrance Target (perception) Aldehyde/Ketone (III) art. light” value is on record as “+++” and the “Global appreciation art. light” value is reported as “+++”.
`COCCOc1ccc(C(=O)C(OCC(C)Cc2ccc(C(C)(C)C)cc2)OCC(C)Cc2ccc(C(C)(C)C)cc2)cc1` (stereo not shown) [compound 15]: the “Fragrance Target (perception) Aldehyde/Ketone (III) nat. light” value is “++”, the “Global appreciation nat. light” value was “++”, the “Fragrance Target (perception) Aldehyde/Ketone (III) art. light” value is given as “+++” and the “Global appreciation art. light” value is “+++”.
As for `CCCCCCCCCC(C)COC(OCC(C)CCCCCCCCC)C(=O)c1ccc2c(c1)OCO2` (stereo not shown) [compound 34], the “Fragrance Target (perception) Aldehyde/Ketone (III) nat. light” value is “+++”, the “Global appreciation nat. light” value was “+++”, the “Fragrance Target (perception) Aldehyde/Ketone (III) art. light” value is recorded as “+++” and the “Global appreciation art. light” value is given as “+++”.
Consider `CSc1ccc(C(=O)C(OCC(C)Cc2ccc(C(C)(C)C)cc2)OCC(C)Cc2ccc(C(C)(C)C)cc2)cc1` (stereo not shown) [compound 31], for which the “Fragrance Target (perception) Aldehyde/Ketone (III) nat. light” value was “+”, the “Global appreciation nat. light” value is on record as “+”, the “Fragrance Target (perception) Aldehyde/Ketone (III) art. light” value is listed as “++” and the “Global appreciation art. light” value is “++”.
With `CC(COC(OCC(C)Cc1ccc(C(C)(C)C)cc1)C(=O)c1ccc2c(c1)OCO2)Cc1ccc(C(C)(C)C)cc1` (stereo not shown) [compound 33], the “Fragrance Target (perception) Aldehyde/Ketone (III) nat. light” value is listed as “++”, the “Global appreciation nat. light” value is “++”, the “Fragrance Target (perception) Aldehyde/Ketone (III) art. light” value is listed as “+++” and the “Global appreciation art. light” value is “+++”.
On to `COCCOc1ccc(C(=O)C(OCC2CCC(C)=CC2C)OCC2CCC(C)=CC2C)cc1` (stereo not shown) [compound 17], for which the “Fragrance Target (perception) Aldehyde/Ketone (III) nat. light” value is “+”, the “Global appreciation nat. light” value is “+”, the “Fragrance Target (perception) Aldehyde/Ketone (III) art. light” value is recorded as “+++” and the “Global appreciation art. light” value is listed as “+++”.
Regarding `CC(COC(OCC(C)Cc1ccc(C(C)(C)C)cc1)(C(=O)c1ccccc1)c1ccccc1)Cc1ccc(C(C)(C)C)cc1` (stereo not shown) [compound 30], the “Fragrance Target (perception) Aldehyde/Ketone (III) nat. light” value is reported as “+”, the “Global appreciation nat. light” value was “+”, the “Fragrance Target (perception) Aldehyde/Ketone (III) art. light” value is given as “++” and the “Global appreciation art. light” value was “++”.
As to `CCCCCCCCCCCCCCCCCCOc1ccc(C(=O)C(OCCC(C)c2cccc(C(C)C)c2)OCCC(C)c2cccc(C(C)C)c2)cc1` (stereo not shown) [compound 23], the “Fragrance Target (perception) Aldehyde/Ketone (III) nat. light” value worked out at 0, the “Global appreciation nat. light” value is listed as 0, the “Fragrance Target (perception) Aldehyde/Ketone (III) art. light” value was “+” and the “Global appreciation art. light” value is “+”.
In the case of `CCCCCCOC(OCCCCCC)(C(=O)c1ccccc1)c1ccccc1` [compound 28], the “Fragrance Target (perception) Aldehyde/Ketone (III) nat. light” value is listed as “+”, the “Global appreciation nat. light” value is “+”, the “Fragrance Target (perception) Aldehyde/Ketone (III) art. light” value is listed as “++” and the “Global appreciation art. light” value is “++”.
For the molecule `C=CCCCCCCCCCOC(OCCCCCCCCCC=C)C(=O)c1ccc(OCCCCCCCCCCCCCCCCCC)cc1` [compound 24], the “Fragrance Target (perception) Aldehyde/Ketone (III) nat. light” value is reported as “++”, the “Global appreciation nat. light” value is listed as “++”, the “Fragrance Target (perception) Aldehyde/Ketone (III) art. light” value is reported as “+++” and the “Global appreciation art. light” value is on record as “+++”.
With `COc1ccc(C(=O)C(OCC(C)Cc2ccc(C(C)(C)C)cc2)OCC(C)Cc2ccc(C(C)(C)C)cc2)cc1OC` (stereo not shown) [compound 37], the “Fragrance Target (perception) Aldehyde/Ketone (III) nat. light” value is “++”, the “Global appreciation nat. light” value is “++”, the “Fragrance Target (perception) Aldehyde/Ketone (III) art. light” value is “+++” and the “Global appreciation art. light” value is recorded as “+++”.
In the case of `CCCCCCCCCCCCCCCCCCOc1ccc(C(=O)C(OCCC(C)CCC=C(C)C)OCCC(C)CCC=C(C)C)cc1` (stereo not shown) [compound 22], the “Fragrance Target (perception) Aldehyde/Ketone (III) nat. light” value is on record as “++”, the “Global appreciation nat. light” value is on record as “++”, the “Fragrance Target (perception) Aldehyde/Ketone (III) art. light” value was “+++” and the “Global appreciation art. light” value is “+++”.
Turning to `CCCCCCCCCCCCCCCCCCOc1ccc(C(=O)C(OCC(C)Cc2ccc(C(C)(C)C)cc2)OCC(C)Cc2ccc(C(C)(C)C)cc2)cc1` (stereo not shown) [compound 21], the “Fragrance Target (perception) Aldehyde/Ketone (III) nat. light” value was “++”, the “Global appreciation nat. light” value was “++”, the “Fragrance Target (perception) Aldehyde/Ketone (III) art. light” value is listed as “+++” and the “Global appreciation art. light” value was “+++”.
For `CC(C)=CCCC(C)CCOC(OCCC(C)CCC=C(C)C)C(=O)c1ccccc1` (stereo not shown) [compound 26], the “Fragrance Target (perception) Aldehyde/Ketone (III) nat. light” value is “+”, the “Fragrance Target (perception) Aryl ketone (II) nat. light” value was “+”, the “Global appreciation nat. light” value is on record as “+” and the “Fragrance Target (perception) Aldehyde/Ketone (III) art. light” value is recorded as “++”. For the same molecule, the “Fragrance Target (perception) Aryl ketone (II) art. light” value is “++” and the “Global appreciation art. light” value is given as “++”.
As to `CCCOc1ccc(C(=O)C(OCC(C)CCCC(C)CCC=C(C)C)OCC(C)CCCC(C)CCC=C(C)C)cc1` (stereo not shown) [compound 12], the “Fragrance Target (perception) Aldehyde/Ketone (III) nat. light” value is listed as “+”, the “Global appreciation nat. light” value is “+”, the “Fragrance Target (perception) Aldehyde/Ketone (III) art. light” value is “++” and the “Global appreciation art. light” value is given as “++”.
For `C=CCCCCCCCCCOC(OCCCCCCCCCC=C)C(=O)c1ccc(OCCCCCCCCCC)cc1` [compound 20], the “Fragrance Target (perception) Aldehyde/Ketone (III) nat. light” value is listed as “++”, the “Global appreciation nat. light” value was “++”, the “Fragrance Target (perception) Aldehyde/Ketone (III) art. light” value is recorded as “+++” and the “Global appreciation art. light” value is reported as “+++”.
In the case of `CCCCCCCCCCOc1ccc(C(=O)C(OCCC(C)CCC=C(C)C)OCCC(C)CCC=C(C)C)cc1` (stereo not shown) [compound 19], the “Fragrance Target (perception) Aldehyde/Ketone (III) nat. light” value is on record as “++”, the “Global appreciation nat. light” value is “++”, the “Fragrance Target (perception) Aldehyde/Ketone (III) art. light” value is recorded as “+++” and the “Global appreciation art. light” value is on record as “+++”.
With `CCCCCCCCCC(C)COC(OCC(C)CCCCCCCCC)C(=O)c1ccc(OCCOC)cc1` (stereo not shown) [compound 16], the “Fragrance Target (perception) Aldehyde/Ketone (III) nat. light” value is “+++”, the “Global appreciation nat. light” value was “+++”, the “Fragrance Target (perception) Aldehyde/Ketone (III) art. light” value was “+++” and the “Global appreciation art. light” value is listed as “+++”.
Regarding `CCCCCCCCCC(C)COC(OCC(C)CCCCCCCCC)(C(=O)c1ccccc1)c1ccccc1` (stereo not shown) [compound 29], the “Fragrance Target (perception) Aldehyde/Ketone (III) nat. light” value is “++”, the “Global appreciation nat. light” value is reported as “+++”, the “Fragrance Target (perception) Aldehyde/Ketone (III) art. light” value is “+++” and the “Global appreciation art. light” value was “+++”.
As to `O=C(c1ccc2c(c1)OCO2)C(OCCc1ccccc1)OCCc1ccccc1` [compound 35], the “Fragrance Target (perception) Aldehyde/Ketone (III) nat. light” value was “++”, the “Global appreciation nat. light” value is recorded as “+”, the “Fragrance Target (perception) Aldehyde/Ketone (III) art. light” value is on record as “++” and the “Global appreciation art. light” value is reported as “++”.
In the case of `CC1=CC(C)C(COC(OCC2CCC(C)=CC2C)C(=O)c2ccc3c(c2)OCO3)CC1` (stereo not shown) [compound 36], the “Fragrance Target (perception) Aldehyde/Ketone (III) nat. light” value was “+”, the “Global appreciation nat. light” value is given as “+”, the “Fragrance Target (perception) Aldehyde/Ketone (III) art. light” value is given as “++” and the “Global appreciation art. light” value is reported as “++”.
Turning to `COCCOc1ccc(C(=O)C(OCC(C)CCCC(C)CCC=C(C)C)OCC(C)CCCC(C)CCC=C(C)C)cc1` (stereo not shown) [compound 18], the “Fragrance Target (perception) Aldehyde/Ketone (III) nat. light” value was “+”, the “Global appreciation nat. light” value is on record as “+”, the “Fragrance Target (perception) Aldehyde/Ketone (III) art. light” value is “++” and the “Global appreciation art. light” value is reported as “++”.
With `CCCOc1ccc(C(=O)C(OC2C[C@@H](C)CC[C@@H]2C(C)C)OC2C[C@@H](C)CC[C@@H]2C(C)C)cc1` (stereo partly shown) [compound 13, 2,2-Bis-(2-isopropyl-5-methyl-cyclohexyloxy)-1-(4-propoxy-phenyl)-ethanone], the “Fragrance Target (perception) Aldehyde/Ketone (III) nat. light” value is “+”, the “Global appreciation nat. light” value is “+”, the “Fragrance Target (perception) Aldehyde/Ketone (III) art. light” value was “++” and the “Global appreciation art. light” value was “++”.
